Test results taken from paper PMC13336076.
These are yes or no findings as the source states them, for the method shown. Binding seen in cells or lysates may run through a third protein. Some results given as binding are weak or reduced against the parent protein; the word gives no strength.

The chains behind the UniProt entries cited, without tags or fusion partners. Where a name states a change or a piece, a line headed by the entry shows the natural chain unless it says otherwise. A line that says so, or that is headed by a name, gives the form on record, which may keep a tag or linker. Residues count along the entry.
UniProt Q921F2: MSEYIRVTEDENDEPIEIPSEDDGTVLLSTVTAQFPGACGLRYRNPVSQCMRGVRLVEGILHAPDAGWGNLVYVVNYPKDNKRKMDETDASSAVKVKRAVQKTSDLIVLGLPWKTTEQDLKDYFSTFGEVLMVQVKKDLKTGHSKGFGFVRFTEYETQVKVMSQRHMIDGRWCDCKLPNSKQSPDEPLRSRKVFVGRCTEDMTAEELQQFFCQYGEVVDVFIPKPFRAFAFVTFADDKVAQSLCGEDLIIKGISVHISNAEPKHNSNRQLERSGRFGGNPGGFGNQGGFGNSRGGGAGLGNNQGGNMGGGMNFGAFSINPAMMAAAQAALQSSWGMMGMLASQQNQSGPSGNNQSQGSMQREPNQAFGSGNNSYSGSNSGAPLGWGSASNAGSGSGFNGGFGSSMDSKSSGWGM
HA‐tagged wild‐type PDI in N2a cells (P07237, residues 18-508): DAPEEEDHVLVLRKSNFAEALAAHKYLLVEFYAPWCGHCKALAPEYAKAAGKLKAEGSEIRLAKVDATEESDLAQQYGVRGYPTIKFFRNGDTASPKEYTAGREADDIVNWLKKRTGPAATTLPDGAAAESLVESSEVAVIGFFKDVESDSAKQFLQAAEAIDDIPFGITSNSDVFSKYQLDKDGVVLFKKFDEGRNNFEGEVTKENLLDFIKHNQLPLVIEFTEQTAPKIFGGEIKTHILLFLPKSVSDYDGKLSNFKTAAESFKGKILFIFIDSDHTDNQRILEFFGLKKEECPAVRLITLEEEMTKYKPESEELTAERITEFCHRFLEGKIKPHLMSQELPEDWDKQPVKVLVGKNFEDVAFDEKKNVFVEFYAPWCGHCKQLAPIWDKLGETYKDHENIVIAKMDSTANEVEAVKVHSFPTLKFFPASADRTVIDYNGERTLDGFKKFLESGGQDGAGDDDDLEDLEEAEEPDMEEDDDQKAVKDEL
HA‐tagged dnPDI in N2a cells (P07237, form named): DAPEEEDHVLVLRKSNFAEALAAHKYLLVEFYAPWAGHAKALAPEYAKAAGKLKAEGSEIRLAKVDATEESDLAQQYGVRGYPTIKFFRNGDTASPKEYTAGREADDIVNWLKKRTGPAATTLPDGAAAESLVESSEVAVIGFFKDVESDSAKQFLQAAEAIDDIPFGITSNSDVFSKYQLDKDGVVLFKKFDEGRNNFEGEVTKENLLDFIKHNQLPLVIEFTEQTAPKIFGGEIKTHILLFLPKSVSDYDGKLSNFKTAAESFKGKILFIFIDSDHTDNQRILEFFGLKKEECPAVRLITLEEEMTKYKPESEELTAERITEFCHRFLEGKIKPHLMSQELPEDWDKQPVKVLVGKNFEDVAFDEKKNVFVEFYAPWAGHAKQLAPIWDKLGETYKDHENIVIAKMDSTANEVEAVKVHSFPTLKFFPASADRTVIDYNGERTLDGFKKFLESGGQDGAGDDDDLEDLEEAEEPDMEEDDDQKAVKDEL

Biological target: endogenous TDP‐43 of N2a cells (mouse (endogenous in N2a)) (UniProt Q921F2)
Assay: co-IP; N2a cells transfected with HA‐tagged PDI forms, 1 mM H2O2 for 1 h; endogenous TDP‐43 precipitated with anti‐TDP‐43 antibody beads, blot with anti‐HA

| binding | Substance |
| --- | --- |
| binds | HA‐tagged dnPDI in N2a cells (from UniProt P07237 18-508) (enzyme) |
| binds | HA‐tagged wild‐type PDI in N2a cells (from UniProt P07237 18-508) (enzyme) |
